{
  "source": "the supplement of paper PMC12889115",
  "tested_on": "Salmonella enterica serovar Typhimurium SL1344",
  "test": "bacterial growth OD600 after 18 h with compound and polymyxin B; higher = more bacterial growth (less inhibition)",
  "details": "50 µM, Mueller-Hinton broth",
  "note": "Some of the results follow. Values are raw readings; no control value is given beside them.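 Primary screen: polymyxin B was added at a level permeabilizing Salmonella outer membranes while sparing inner membranes. DMSO wells, both with and without polymyxin B, established maximum growth. Plate-to-plate variation meant each plate was ranked on its own, and the lowest-OD600 compounds were selected as hits.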",
  "data": [
    {"compound": "CN1C(=O)CC(CC(=O)N2CCN(C3CCCCC3)C(=O)C2)(c2ccc(-c3ccccc3)cc2)C1=O", "note": "(stereo not drawn)", "values": [
      {"measurement": "bacterial growth OD600", "setting": "polymyxin B 0.75 µg/mL", "result": 0.007}
    ]},
    {"compound": "CCOC(=O)C1(Cc2ccccc2)CCCN(Cc2cccc3c2OCO3)C1", "note": "(stereo not drawn)", "values": [
      {"measurement": "bacterial growth OD600", "setting": "polymyxin B 1 µg/mL", "result": 0.729}
    ]},
    {"compound": "COc1ccc(F)c(CC2(CCC(=O)NCCn3ccc4ccccc43)CCC(=O)N2)c1", "note": "(stereo not drawn)", "values": [
      {"measurement": "bacterial growth OD600", "setting": "polymyxin B 0.75 µg/mL", "result": 0.852}
    ]},
    {"compound": "COc1cccc(CC(C2CCN(C(=O)Cc3ccccc3C)CC2)N(C)C(=O)c2cccnc2)c1", "note": "(stereo not drawn)", "values": [
      {"measurement": "bacterial growth OD600", "setting": "polymyxin B 0.75 µg/mL", "result": 0.97}
    ]},
    {"compound": "CCOC(=O)C1(CCOc2ccccc2)CCCN(Cc2[nH]cnc2C)C1", "note": "(stereo not drawn)", "values": [
      {"measurement": "bacterial growth OD600", "setting": "polymyxin B 1 µg/mL", "result": 0.484}
    ]},
    {"compound": "O=C(CC1=CCCCC1)NC1CCCN(c2ncccn2)C1", "note": "(stereo not drawn)", "values": [
      {"measurement": "bacterial growth OD600", "setting": "polymyxin B 1 µg/mL", "result": 0.875}
    ]},
    {"compound": "O=C(c1ccc(NC2CCCC2)nc1)N1CCCCC1CCn1cccn1", "note": "(stereo not drawn)", "values": [
      {"measurement": "bacterial growth OD600", "setting": "polymyxin B 1 µg/mL", "result": 0.943}
    ]},
    {"compound": "COc1ccc(F)c(CC2(CCC(=O)N(C)Cc3nc4c(s3)CCCC4)CCC(=O)N2)c1", "note": "(stereo not drawn)", "values": [
      {"measurement": "bacterial growth OD600", "setting": "polymyxin B 0.75 µg/mL", "result": 0.843}
    ]}
  ]
}
